# Hit rate of the full screen: of about 330,000 compounds, about 7,700 (2.3%) were called active. This list was built around the results that the source calls inconclusive (neither active nor inactive); the mix of calls is not that of the screen. The call rests on the fitted dose curve; in most records, active means well fitted inhibition curve with a large enough effect; inconclusive means small, poorly fitted or top-dose-only effect, or effect the other way; inactive means flat fitted curve, though single readings scatter. Potencies of inconclusive entries are doubtful fits and often do not repeat.
# Assay: qHTS screen for small molecules that inhibit ELG1-dependent DNA repair in human embryonic kidney (HEK293T) cells expressing luciferase-tagged ELG1; further: nearly all actives have a fitted effect of over 55% in size
# Conditions: HEK293T ELG1-luciferase reporter, luminescence, 16 h, DNA damage induced by 5-fluorouridine; activity change, negative = inhibition: at 46.1 µM (top of the series)
# How it was run: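 HEK293T cells expressing luciferase-tagged ELG1 (2,000/well) received 5-Fluorouridine plus compound or DMSO for 16 hr at 37 °C. Luciferase was read by ONE-Glo luminescence after 30 min at room temperature.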
# On the % scale 0 is the no-effect control and ±100 the full control effect; potency means the concentration at half of the fitted maximal effect.
Compound,Potency,"activity change, negative = inhibition"
O=C(CCc1ccccc1Cl)NC1CCCN(c2ccc(C(F)(F)F)cn2)C1 (configuration not stated),inactive,–
COc1ccc(CNc2ncnc3cc(Cl)ccc23)cc1OC,"inconclusive: 2.31 µM [inhibitor, partial curve, poor fit]",–
COc1cc2cc(CCO)oc(=O)c2cc1OC,"inconclusive: 29.1 µM [activator, single point]",–
C=CCN(c1ccccc1)S(=O)(=O)c1cccc(C(=O)NCC(c2cccs2)N2CCOCC2)c1 (configuration not stated),"inconclusive: 20.6 µM [inhibitor, single point]",–
O=C(Nc1ccccc1)Nc1ccc2nnsc2c1,"inconclusive: 8.2 µM [activator, partial curve]",–
CC(C)Cc1cc(C(=O)Nc2ccc3c(c2)OCO3)no1,"inconclusive: 6.51 µM [activator, partial curve]",–
COc1ccc(C2(CNC(=O)/C=C/c3ccco3)CCCC2)cc1OC,"inconclusive: 16.4 µM [inhibitor, partial curve, poor fit]",–
COc1ccc(C2CC(c3ccccc3)=NN2C(=O)COC(=O)c2cccc(N)c2)cc1 (configuration not stated),"inconclusive: 8.2 µM [inhibitor, single point]",–
CC(C)[C@H](NC(=O)c1ccccc1)C(=O)OCC(=O)NCc1ccc2c(c1)OCO2,inactive,–
COc1cccc(CNC(=O)c2cccc(S(=O)(=O)N3CCN(C)CC3)c2)c1,inactive,–
Cc1nc(/N=C(\N)NC(=O)NC2CCCCC2)nc2ccccc12,active: 9.2 µM,–
Cc1ccc(C(=O)Cn2c(=N)n(N)c3ccccc32)cc1,"inconclusive: 6.51 µM [activator, partial curve]",–
O=C(Cn1cc2c(n1)CCCCC2)NCCCN1CCOCC1,inactive,–
O=C(CCSc1ccccc1)Nc1nc2c(s1)CCCC2,"inconclusive: 25.9 µM [activator, single point]",–
Cc1sc(NC(=O)c2ccc3ncsc3c2)c(C(N)=O)c1C,"inconclusive: 1.3 µM [activator, partial curve]",–
CCn1c(C)nc([N+](=O)[O-])c1Sc1ccc(F)cc1,"inconclusive: 32.6 µM [inhibitor, single point]",–
NS(=O)(=O)c1ccc(CCNCc2cc(Br)ccc2OCc2ccccc2F)cc1,"inconclusive: 29.1 µM [inhibitor, single point]",–
CS(=O)(=O)N(CC(=O)N1CCN(c2ccccc2F)CC1)c1cc(C(F)(F)F)ccc1Cl,"inconclusive: 20.6 µM [inhibitor, single point]",–
COc1ccccc1CSc1nc2ccccc2[nH]1,"inconclusive: 11.6 µM [activator, partial curve, poor fit]",–
Cc1ccc(C)c(N2CCN(C(=O)C3CCCN(c4ncnc5c4nc4n5CCCCC4)C3)CC2)c1 (configuration not stated),active: 13 µM,–
O=S(=O)(c1ccc2oc3ccc(S(=O)(=O)N4CCCCC4)cc3c2c1)N1CCCCC1,"inconclusive: 20.6 µM [activator, partial curve, poor fit]",–
c1cncc(-c2nnc(-c3ccco3)o2)c1,"inconclusive: 11.6 µM [activator, partial curve, poor fit]",–
COc1cc(C2C(N3C(=O)c4ccccc4C3=O)C(=O)N2c2ccc(C)c(C)c2)cc(OC)c1OC (configuration not stated),"inconclusive: 16.4 µM [activator, partial curve]",–
C=C(C(=O)Oc1c(C(C)(C)C)cccc1C(C)(C)C)c1ccccc1,"inconclusive: 16.4 µM [activator, partial curve]",–

Compound,Potency,"activity change, negative = inhibition"
CCOc1ccc(NC(=O)CSc2nnc(C)n2CC2CCCO2)cc1 (configuration not stated),inactive,–
O=C(CSc1ncccn1)Nc1ccc(Cl)c(S(=O)(=O)N2CCOCC2)c1,inactive,–
CCCn1cnc2c(oc3ccccc32)c1=O,"inconclusive: 20.6 µM [activator, single point]",–
N#CC1(NC(=O)CN2C(=O)c3ccccc3C2=O)CCCCC1,inactive,–
COc1ccccc1N1CCN(C(=O)c2ccccc2N(C)S(=O)(=O)c2ccc(C)cc2)CC1,inactive,–
CC(C)(C)c1nnc2sc(SCCN3C(=O)c4ccccc4C3=O)nn2c1=O,inactive,–
Cc1c(C(=O)NCCc2ccccc2)oc2ccccc12,"inconclusive: 6.51 µM [activator, partial curve]",–
CS(=O)(=O)c1ccc2nc(NC(=O)C3CCCCC3)sc2c1,active: 3.66 µM,–
CCCc1nc(SCC(=O)N2CCCC2)c2ccccc2n1,"inconclusive: 20.6 µM [inhibitor, single point]",–
COCC(=O)Nc1c(C(=O)Nc2ccc3c(c2)OCO3)oc2ccccc12,"inconclusive: 2.31 µM [activator, partial curve]",–
Cc1cc(NC(=O)COc2ccc(Cl)cc2Cl)n(CCC#N)n1,"inconclusive: 16.4 µM [activator, partial curve]",–
CC(=O)Nc1cc(-c2nn(C)c(=O)c3ccccc23)ccc1N1CCOCC1,"inconclusive: 14.6 µM [activator, partial curve]",–
COc1cc(C(=O)N2CCN(S(=O)(=O)c3ccc(F)cc3)CC2)cc(OC)c1OC,inactive,–
Nc1ccc(-c2cc3ccccc3c(=O)o2)cc1,"inconclusive: 4.11 µM [activator, partial curve]",–
CC1CCc2c(sc(NC(=O)c3c([N+](=O)[O-])cnn3C)c2C(N)=O)C1 (configuration not stated),inactive,–
Cc1cc(=O)[nH]c(SCC(=O)Nc2ccc(F)cc2)c1C#N,"inconclusive: 20.6 µM [inhibitor, single point]",–
NC(=O)[C@H]1CC2(CC(c3cccc(NC(=O)COc4ccc(Cl)cc4)c3)=NO2)CN1C(=O)CC(c1ccccc1)c1ccccc1 (some centres not stated),"inconclusive: 16.4 µM [inhibitor, partial curve]",–
CCOc1nc(N2CCCCC2)nc(-n2cc(-c3ccccc3)nn2)n1,inactive,–
CC(C)CN(C(=O)COC(=O)c1nc(Cl)ccc1Cl)C1CCS(=O)(=O)C1 (configuration not stated),"inconclusive: 9.2 µM [activator, partial curve, poor fit]",–
CCN(CC)C(=S)SCC(=O)c1ccc(F)cc1,"inconclusive: 4.61 µM [activator, full curve]",–
O=C(CSc1ccc(F)cc1)NC12CC3CC(CC(C3)C1)C2,"inconclusive: 20.6 µM [activator, single point]",–
CC(/C=C/c1ccccc1F)=N\NC(=O)c1ccccc1,"inconclusive: 9.2 µM [activator, partial curve]",–
CC(C)(C)NCc1ccccc1OCc1cccs1,inactive,–
Cc1ccc(C)c(NC(=O)c2cc(-c3cccnc3)nc3ccccc23)c1,"inconclusive: 20.6 µM [inhibitor, single point]",–

# Some of these compounds in order of SMILES length, rising:
Compound,Potency,"activity change, negative = inhibition"
CCCn1cnc2c(oc3ccccc32)c1=O,"inconclusive: 20.6 µM [activator, single point]",–
COc1cc2cc(CCO)oc(=O)c2cc1OC,"inconclusive: 29.1 µM [activator, single point]",–
c1cncc(-c2nnc(-c3ccco3)o2)c1,"inconclusive: 11.6 µM [activator, partial curve, poor fit]",–
Cc1c(C(=O)NCCc2ccccc2)oc2ccccc12,"inconclusive: 6.51 µM [activator, partial curve]",–
CCCc1nc(SCC(=O)N2CCCC2)c2ccccc2n1,"inconclusive: 20.6 µM [inhibitor, single point]",–
O=C(Cn1cc2c(n1)CCCCC2)NCCCN1CCOCC1,inactive,–
CCn1c(C)nc([N+](=O)[O-])c1Sc1ccc(F)cc1,"inconclusive: 32.6 µM [inhibitor, single point]",–
CS(=O)(=O)c1ccc2nc(NC(=O)C3CCCCC3)sc2c1,active: 3.66 µM,–
Cc1nc(/N=C(\N)NC(=O)NC2CCCCC2)nc2ccccc12,active: 9.2 µM,–
CCOc1nc(N2CCCCC2)nc(-n2cc(-c3ccccc3)nn2)n1,inactive,–
C=C(C(=O)Oc1c(C(C)(C)C)cccc1C(C)(C)C)c1ccccc1,"inconclusive: 16.4 µM [activator, partial curve]",–
O=C(CCc1ccccc1Cl)NC1CCCN(c2ccc(C(F)(F)F)cn2)C1 (configuration not stated),inactive,–
CC(C)(C)c1nnc2sc(SCCN3C(=O)c4ccccc4C3=O)nn2c1=O,inactive,–
COc1cccc(CNC(=O)c2cccc(S(=O)(=O)N3CCN(C)CC3)c2)c1,inactive,–
CC(C)CN(C(=O)COC(=O)c1nc(Cl)ccc1Cl)C1CCS(=O)(=O)C1 (configuration not stated),"inconclusive: 9.2 µM [activator, partial curve, poor fit]",–
COc1cc(C(=O)N2CCN(S(=O)(=O)c3ccc(F)cc3)CC2)cc(OC)c1OC,inactive,–
CC(C)[C@H](NC(=O)c1ccccc1)C(=O)OCC(=O)NCc1ccc2c(c1)OCO2,inactive,–
CS(=O)(=O)N(CC(=O)N1CCN(c2ccccc2F)CC1)c1cc(C(F)(F)F)ccc1Cl,"inconclusive: 20.6 µM [inhibitor, single point]",–
C=CCN(c1ccccc1)S(=O)(=O)c1cccc(C(=O)NCC(c2cccs2)N2CCOCC2)c1 (configuration not stated),"inconclusive: 20.6 µM [inhibitor, single point]",–
COc1cc(C2C(N3C(=O)c4ccccc4C3=O)C(=O)N2c2ccc(C)c(C)c2)cc(OC)c1OC (configuration not stated),"inconclusive: 16.4 µM [activator, partial curve]",–
NC(=O)[C@H]1CC2(CC(c3cccc(NC(=O)COc4ccc(Cl)cc4)c3)=NO2)CN1C(=O)CC(c1ccccc1)c1ccccc1 (some centres not stated),"inconclusive: 16.4 µM [inhibitor, partial curve]",–

# Next structures follow.

Compound,Potency,"activity change, negative = inhibition"
N=c1c2c(ncn1CCN1CCOCC1)Oc1cc(O)ccc1C2c1ccccc1 (configuration not stated),inactive,–
COc1ccc(NC(=O)CCNC(=O)C2CCN(S(=O)(=O)c3ccc(F)cc3)CC2)cc1OC,inactive,–
CCOC(=O)N1CCN(C(=O)c2ccc(Cn3c(=S)[nH]c4ccc(Br)cc4c3=O)cc2)CC1,active: 7.3 µM,–
CCCCCC(=O)OCCc1c(C)nc2nc[nH]n2c1=O,inactive,–
CCOC(=O)c1c(N=CN(C)C)c2cc([N+](=O)[O-])cnc2n1C,"inconclusive: 18.3 µM [inhibitor, single point]",–
CCCCC(=O)OCC(=O)Nc1ccc(C)c(F)c1,inactive,–
CC(=O)Nc1cccc(Oc2ccc(-c3noc(C)n3)cc2)c1,"inconclusive: 7.31 µM [activator, partial curve]",–
COc1ccc(-n2c(C)cc(C3=NNC(=NC4CC4)SC3)c2C)cc1,"inconclusive: 3.66 µM [activator, full curve]",–
Cc1cccc(N2CCN(C(=O)C3CCN(c4ncnc5c4nc4n5CCCCC4)CC3)CC2C)c1 (configuration not stated),active: 4.11 µM,–
O=C1CCCC2=C1C(c1cccs1)n1nc(SCc3ccccc3F)nc1N2 (configuration not stated),"inconclusive: 20.6 µM [inhibitor, partial curve, poor fit]",–
Cc1cc(Nc2ccccc2)nn1C(=O)c1ccc([N+](=O)[O-])cc1,inactive,–
Cc1cc(C(=O)NC(C)CCc2ccccc2)ccc1[N+](=O)[O-] (configuration not stated),"inconclusive: 35.5 µM [activator, single point]",–
CCN(CC)S(=O)(=O)c1ccc(C)c(NC(=O)Cc2ccc(S(=O)(=O)N3CCOCC3)s2)c1,inactive,–
CC1CCCC(C)N1C(=O)CN1CCN(c2nc(-c3ccc(F)cc3)cs2)CC1 (configuration not stated),"inconclusive: 10.3 µM [inhibitor, partial curve, poor fit]",–
C(=N\Nc1nc2ccccc2[nH]1)/c1c[nH]c2ccccc12,"inconclusive: 8.2 µM [activator, partial curve]",–
Cc1ccc(C(=O)Nc2ccc3cn[nH]c3c2)cc1S(=O)(=O)N1CCOCC1,inactive,–
Nc1n[nH]c2c1C1(CCCCC1)Cc1ccccc1-2,inactive,–
Cc1ccccc1C(=O)NC(=S)NCCC1=CCCCC1,inactive,–
O=S(=O)(NC12CC3CC(CC(C3)C1)C2)c1ccc(F)cc1,"inconclusive: 16.4 µM [activator, partial curve, poor fit]",–
CC(C)Oc1ccc(C2CC(=O)N(c3cccc(Br)c3)C2=O)cc1 (configuration not stated),inactive,–
COc1ccc(S(=O)(=O)c2c(O)c3ccc(C(=O)Nc4ccccc4)cc3[nH]c2=O)cc1,inactive,–
Cc1nn(C)cc1CN(C)C(=O)c1sc2cccc(Cl)c2c1Cl,–,inconclusive: 2.9% [activator]
COc1ccccc1N1CCN(C(=O)C2CCC(Cn3c(=S)[nH]c4ccccc4c3=O)CC2)CC1 (configuration not stated),"inconclusive: 16.4 µM [inhibitor, partial curve, poor fit]",–
Cc1ccc(C(=O)N(CCC2=CCCCC2)c2c(N)n(Cc3ccccc3)c(=O)[nH]c2=O)o1,active: 9.2 µM,–

# Source: PubChem BioAssay AID504467 (National Center for Advancing Translational Sciences (NCATS), 2011)
